The source of these data is PMC6168483.

By UniProt entry, the sequences of proteins in these tests, tags left out.
UniProt Q9Y618: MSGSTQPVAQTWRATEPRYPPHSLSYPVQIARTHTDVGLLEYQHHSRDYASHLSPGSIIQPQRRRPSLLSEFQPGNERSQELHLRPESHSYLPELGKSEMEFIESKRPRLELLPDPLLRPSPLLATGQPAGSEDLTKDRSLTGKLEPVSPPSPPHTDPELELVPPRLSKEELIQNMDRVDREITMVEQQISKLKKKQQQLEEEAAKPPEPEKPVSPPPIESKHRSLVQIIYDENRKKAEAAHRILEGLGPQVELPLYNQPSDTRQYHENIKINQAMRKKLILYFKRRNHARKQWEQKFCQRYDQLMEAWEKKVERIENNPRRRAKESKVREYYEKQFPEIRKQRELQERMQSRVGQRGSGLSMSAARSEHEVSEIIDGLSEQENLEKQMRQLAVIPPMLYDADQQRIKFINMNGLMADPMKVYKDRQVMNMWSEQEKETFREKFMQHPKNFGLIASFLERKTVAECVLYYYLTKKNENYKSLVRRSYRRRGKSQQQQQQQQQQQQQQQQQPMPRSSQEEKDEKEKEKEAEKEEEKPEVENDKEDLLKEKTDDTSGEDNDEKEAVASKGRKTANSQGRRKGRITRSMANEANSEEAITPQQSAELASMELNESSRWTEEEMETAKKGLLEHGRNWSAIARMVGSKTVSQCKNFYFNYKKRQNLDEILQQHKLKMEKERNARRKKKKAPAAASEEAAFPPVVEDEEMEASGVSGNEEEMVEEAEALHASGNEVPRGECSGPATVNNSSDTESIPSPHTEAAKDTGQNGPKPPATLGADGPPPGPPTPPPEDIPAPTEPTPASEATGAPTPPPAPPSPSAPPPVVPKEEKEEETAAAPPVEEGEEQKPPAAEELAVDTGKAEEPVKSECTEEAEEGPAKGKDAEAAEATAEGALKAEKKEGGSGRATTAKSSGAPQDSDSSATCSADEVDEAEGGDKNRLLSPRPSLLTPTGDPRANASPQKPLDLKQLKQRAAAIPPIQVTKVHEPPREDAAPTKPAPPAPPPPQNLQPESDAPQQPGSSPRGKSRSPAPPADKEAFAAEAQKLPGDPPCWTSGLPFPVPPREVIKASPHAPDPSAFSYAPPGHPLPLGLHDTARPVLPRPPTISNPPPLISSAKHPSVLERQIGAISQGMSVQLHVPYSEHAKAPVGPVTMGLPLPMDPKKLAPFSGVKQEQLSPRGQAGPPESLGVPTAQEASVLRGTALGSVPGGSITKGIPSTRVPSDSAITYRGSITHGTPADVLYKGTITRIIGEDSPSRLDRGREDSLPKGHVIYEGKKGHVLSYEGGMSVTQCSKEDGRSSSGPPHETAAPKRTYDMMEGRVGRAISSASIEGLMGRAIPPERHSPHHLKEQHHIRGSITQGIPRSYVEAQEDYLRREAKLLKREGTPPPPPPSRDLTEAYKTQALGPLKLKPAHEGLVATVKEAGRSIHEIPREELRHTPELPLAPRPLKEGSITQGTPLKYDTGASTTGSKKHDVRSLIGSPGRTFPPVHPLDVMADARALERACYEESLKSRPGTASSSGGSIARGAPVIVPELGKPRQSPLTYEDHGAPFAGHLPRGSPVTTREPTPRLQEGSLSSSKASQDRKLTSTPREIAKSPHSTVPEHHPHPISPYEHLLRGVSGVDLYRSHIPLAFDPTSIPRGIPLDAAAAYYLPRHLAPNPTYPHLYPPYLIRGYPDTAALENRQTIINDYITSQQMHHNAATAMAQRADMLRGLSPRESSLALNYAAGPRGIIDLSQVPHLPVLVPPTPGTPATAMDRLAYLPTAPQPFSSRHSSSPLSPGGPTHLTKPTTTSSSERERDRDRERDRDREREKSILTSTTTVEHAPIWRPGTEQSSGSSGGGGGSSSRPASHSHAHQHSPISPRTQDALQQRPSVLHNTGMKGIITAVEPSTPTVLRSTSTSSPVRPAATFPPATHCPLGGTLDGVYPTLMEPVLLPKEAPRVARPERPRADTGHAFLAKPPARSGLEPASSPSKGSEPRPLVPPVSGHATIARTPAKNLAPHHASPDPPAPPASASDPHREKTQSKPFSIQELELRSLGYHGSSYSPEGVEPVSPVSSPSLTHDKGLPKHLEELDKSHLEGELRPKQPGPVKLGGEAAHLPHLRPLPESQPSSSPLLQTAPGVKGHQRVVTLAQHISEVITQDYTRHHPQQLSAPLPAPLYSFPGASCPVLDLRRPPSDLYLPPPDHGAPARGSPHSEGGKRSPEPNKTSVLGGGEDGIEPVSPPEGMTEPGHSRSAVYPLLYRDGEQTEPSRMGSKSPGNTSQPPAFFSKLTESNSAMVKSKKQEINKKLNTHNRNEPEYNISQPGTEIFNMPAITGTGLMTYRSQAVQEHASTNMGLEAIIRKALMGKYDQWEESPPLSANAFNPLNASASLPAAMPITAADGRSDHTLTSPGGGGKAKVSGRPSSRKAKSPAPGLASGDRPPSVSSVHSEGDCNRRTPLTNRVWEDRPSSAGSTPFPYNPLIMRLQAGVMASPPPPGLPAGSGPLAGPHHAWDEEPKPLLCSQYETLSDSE
UniProt Q13227: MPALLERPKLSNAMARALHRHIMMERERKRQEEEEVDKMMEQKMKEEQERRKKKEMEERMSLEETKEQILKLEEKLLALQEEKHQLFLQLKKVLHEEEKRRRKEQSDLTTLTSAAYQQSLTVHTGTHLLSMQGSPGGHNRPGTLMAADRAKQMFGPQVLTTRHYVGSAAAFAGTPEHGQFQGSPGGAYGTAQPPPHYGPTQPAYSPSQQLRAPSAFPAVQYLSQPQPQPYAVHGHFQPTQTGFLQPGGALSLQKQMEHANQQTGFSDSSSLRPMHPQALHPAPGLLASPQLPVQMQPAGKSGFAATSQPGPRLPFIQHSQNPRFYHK

No constants are given. Whether binding was seen depends on the method and setting. Some results given as binding are weak or reduced against the parent protein; the word gives no strength.

The test addresses SMRT (UniProt Q9Y618). Description: co-purification of a recombinant complex; complexes transfected, expressed and purified as previously described (refs 23, 43); bait and purification steps not given.

GPS2 (from UniProt Q13227 1-327): the binding entry is “binds”.
